Taken from: PubChem BioAssay AID743454 (Peter MacCallum Cancer Centre, 2014)

Aim: 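Search for knock-downs that restore vorinostat killing in resistant colon cancer cells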 (primary screen)
Cells: human HCT116-VR colon cancer cells, selected for vorinostat resistance
Reagent: siRNA pool against human genes, 40 nM siRNA pool
Time to read-out: vorinostat for 24 h, read-out about 72 h after transfection
Treatment: vorinostat at 2.5 µM final
Detection: 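Two measures, CellTiter-Fluor viability and luminescent caspase 3/7 activity, each as fold change against same-plate mock wells, mean of duplicates, then screen-wide robust z-score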
Scale: viability robust z-score: higher = more viable cells than screen typical; caspase robust z-score: higher = more caspase 3/7 activity than screen typical
Rule for the call: 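Hits are knock-downs in viability class RV1/RV2 or caspase class CA1/CA2, excluding ones that killed cells in the no-drug cell-count arm; hits then retested with single siRNAs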
This is an unselected part of about 18,000 reagents. 450 of them (2.5%) count as active. 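Single biological run; no consistent viability z cut-off exists, so the class columns, not z-scores, define the calls.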 Entries without a mark were called inactive.

gene | viability hit class | caspase hit class | viability robust z-score | caspase robust z-score
RNF144A | no change | no change | 1.17 | -0.08
ANXA8 | no change | no change | 1.75 | -0.32
TP53RK | no change | no change | -0.1 | 1.64
GH1 | no change | no change | 0.97 | -0.43
SFXN5 | no change | no change | -0.46 | 0.4
KLHDC10 | no change | no change | 0.16 | -0.22
HEXD | no change | no change | -0.46 | -0.77
SCNN1D | no change | no change | 0.8 | -0.53
SPHK2 | no change | no change | 0.04 | 0.52
CTNS | no change | no change | 0.91 | -0.52
SZRD1 | no change | no change | -0.04 | -0.5
FJX1 | no change | no change | -0.18 | 0.76
MVD | no change | no change | -0.34 | 0
BFAR | no change | no change | 0.05 | -0.56
DEDD | no change | no change | -0.51 | 0.11
RING1 | no change | no change | -0.34 | 1.77
NCAM2 | no change | no change | 0.74 | -1.03
PEX19 | no change | no change | 0.3 | -0.7
PRPSAP2 | no change | no change | 0.34 | -0.44
GCHFR | no change | no change | -1.43 | 1.36
NCBP2 | no change | no change | -1.88 | -0.9
HINT2 | no change | no change | 0.52 | 0.32
FOXD4L4 | no change | no change | -0.24 | -0.01
RFESD | no change | no change | 1.44 | 0.32
FOXI1 | RV2 (reduced viability) (active) | no change | -3.47 | 3.78
TEX11 | no change | no change | -0.5 | -0.62
ABO | no change | no change | 0.26 | -0.3
MED20 | no change (active) | CA2 (caspase activation) | -0.12 | 5.85
MPEG1 | no change | no change | -1.04 | -0.68
SSX4B | no change | no change | -0.36 | -0.68
ING2 | no change (active) | CA1 (caspase activation) | -0.8 | 5.63
PRR18 | no change | no change | -0.17 | 2.1
SLCO3A1 | no change | no change | -0.3 | 1.72
MED13L | no change | no change | 0.55 | -0.28
LINC00336 | no change | no change | -0.74 | -0.22
TUSC2 | no change | no change | 0.17 | -0.05
PROS1 | no change | no change | 0.78 | -0.31
EBF2 | no change | no change | -0.6 | 0.99
GUCD1 | no change | no change | 0.73 | 0.24
FAS | no change | no change | -0.93 | 4.42
FADD | no change | no change | 2.23 | -0.17
ANGPTL7 | no change | no change | -1.04 | 1.16
OR52K1 | no change | no change | -0.14 | -0.2
DEFB112 | no change | no change | -0.43 | 0.66
TRIM6-TRIM34 | no change | no change | 0.52 | -0.04
ATP5F1C | no change | no change | 1.32 | 1.28
PAQR7 | no change | no change | -0.64 | 0.26
TGFB1 | no change | no change | 0.34 | -0.08
MSH4 | no change | no change | 0.36 | 2.08
TJAP1 | no change | no change | -1.32 | 0.45
PALMD | no change | no change | 0.24 | 0.2
ADRA2C | RV2 (reduced viability) (active) | no change | -3.67 | 0.92
PUS10 | no change | no change | 0.85 | -0.76
ALPL | no change | no change | -1.12 | 3.09
PKD2L2 | no change | no change | -0.37 | 0.53
GPX6 | no change | no change | 0.77 | 0.07
SH2B2 | no change | no change | 1.64 | -1.25
PMEPA1 | no change | no change | -0.74 | 3.31
KRTAP19-1 | no change | no change | -0.06 | -0.82
KIAA1586 | no change | no change | 1.2 | -1.06
SKP1 | no change | no change | 0.2 | 3
TRIM41 | no change | no change | -1.05 | 1.36
TIMM8A | no change | no change | 0.54 | -0.06
PLXND1 | no change | no change | 1.6 | 2.25
BTG1 | no change | no change | 1.1 | 4.7
ZNF652 | no change | no change | 1.5 | -0.53
TLX3 | no change | no change | 0.01 | -0.92
MCM5 | no change | no change | -1.32 | 2.7
TMEM67 | no change | no change | 1.38 | -0.34
SECTM1 | no change | no change | -0.04 | 1.4
BTG2 | no change | no change | 0.66 | 0.23
GPR176 | no change | no change | 0.17 | -0.05
LARP1B | no change | no change | 0.81 | -0.74
